Source: US20140315215A1
These are yes or no findings as the source states them, for the method shown. Some binding calls cover weakened binding; strength is not graded here. Tags and fused reporters may be left off the sequences shown.

Key:
hen egg lysozyme (hen) [1] = molecular target: hen egg lysozyme (hen) (UniProt P00698); test: ELISA: HEL dilutions on Maxisorp plate, probed with fusion treated with 0, 1, 4 or 8M urea; limits of detection unchanged
hen egg lysozyme (hen) [2] = molecular target: hen egg lysozyme (hen) (UniProt P00698); test: ELISA on immobilised HEL, tAK activity (luminescence) as read-out, BSA as background control
hen egg lysozyme (hen) [3] = molecular target: hen egg lysozyme (hen) (UniProt P00698); test: ELISA: HEL dilutions 5-500 nM coated on Maxisorp plate, probed with 10 ug/ml fusion, tAK luminescence read-out
hen egg lysozyme (hen) [4] = molecular target: hen egg lysozyme (hen) (UniProt P00698); test: ELISA: plate coated with 10 ug/ml HEL, probed with heat-treated 10 ug/ml fusion, tAK luminescence read-out

Measured: binding

B1: SacAK-F3-VNAR fusion protein (Sulfolobus acidocaldarius adenylate kinase, [GGGGS]3 flexible linker F3, hen egg lysozyme specific shark VNAR) (VNAR)
chain: MLATALKLGYAKDRDEMRKLSVEKQKKLQIDAAKGIAEEARAGGEGYLFIDTHAVIRTPSGYLPGLPSYVITEINPSVIFLLEADPKIILSRQKRDTTRNRNDYSDESVILETINFARYAATASAVLAGSTVKVIVNVEGDPSIAANEIIRSMKQSTGGGGSGGGGSGGGGSGSARVDQTPRSVTKETGESLTINCVLRDASYALGSTCWYRKKSGSTNEESISKGGRYVETVNSGSKSFSLRINDLTVEDGGTYRCGLGVAGGYCDYALCSSRYAECGDGTAVTVN
binds: hen egg lysozyme (hen) [1] | hen egg lysozyme (hen) [2] | hen egg lysozyme (hen) [3] | hen egg lysozyme (hen) [4]
